From PubChem BioAssay AID493014 (National Center for Advancing Translational Sciences (NCATS), 2011)
The list shows a part of the results. These are further read-outs of the screen, such as a control signal, another cell line or another target. No call is given for them. Compounds called inactive in the main read-out are mostly missing here. Words in brackets tell the shape of the fitted curve; partial curves, single points and poor fits give uncertain potencies.

Assay: qHTS Assay to Find Inhibitors of Chronic Active B-Cell Receptor Signaling
Settings: ABC-DLBCL IkBa-CBG/CBR reporter, luminescence ratio (green luciferase fused to IkBa over red control in TMD8 lymphoma cells), 4 h
Procedure, shortened: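 Doxycycline induced both beetle luciferases in TMD8 lymphoma cells; IKK-driven degradation limits the IkappaBalpha-fused green signal, while red luminescence normalises for cell number and nonspecific effects. Compounds tested up to 46 uM, 4 hrs.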

[1] = measured here: CBR red luminescence, cell number
[2] = measured here: IkBa-CBG green luminescence

| Structure (SMILES) | AC50 [1] | AC50 [2] |
| --- | --- | --- |
| COc1cccc(C(=O)N/N=C(/CCC(=O)O)c2ccccc2)c1 | 1.84 µM [falling, full curve] | – |
| COC(=O)Cn1cnc2c(nnn2-c2ccc(C)cc2)c1=O | 4.11 µM [falling, single point] | – |
| CS(=O)(=O)c1cccc(C(=O)Nc2ccc3c(c2)OCCCO3)c1 | 35.5 µM [falling, single point] | – |
| COc1ccc(Br)cc1/C=N/NC(=O)c1cc(Br)ccc1O | 1.41 µM [falling, full curve, poor fit] | – |
| Cc1ccc(NC(=O)CN2C(=O)NC3(CCCc4ccccc43)C2=O)cc1S(=O)(=O)N1CCOCC1 (stereo not drawn) | 12.6 µM [falling, single point] | – |
| COc1ccccc1-c1cn(S(=O)(=O)c2ccc(F)cc2)nc1N | 11.2 µM [falling, partial curve] | – |
| COc1ccc(/C=C2\SC(=S)N(CCCC(=O)Nc3ccc(C(=O)O)cc3)C2=O)cc1OC | 1.58 µM [falling, full curve, poor fit] | – |
| Nc1nc(-c2ccc([N+](=O)[O-])cc2)c(C(=O)Nc2ccc(Cl)cc2)s1 | 5.62 µM [rising, single point] | – |
| COCCCNC(=O)c1cc2c(-c3cccc(OC)c3)nn(C)c2s1 | 15.8 µM [falling, single point] | – |
| CCOc1ncccc1C(=O)Nc1ccc(C)cn1 | 15.8 µM [rising, partial curve, poor fit] | – |
| CCOC(=O)c1c(C)[nH]c(C(=O)COC(=O)/C=C/c2cccc(OC)c2OC)c1C | 0.326 µM [rising, full curve] | – |
| CC(C)[C@@H](C(=O)NC1CCN(Cc2ccccc2)CC1)N1C(=O)N2CCc3c([nH]c4ccccc34)[C@@]2(C)C1=O | 14.1 µM [falling, partial curve, poor fit] | 14.1 µM [rising, partial curve, poor fit] |
| Oc1ccccc1-c1cc(-c2ccco2)[nH]n1 | 5.17 µM [falling, full curve, poor fit] | – |
| Cc1ccc(C(=O)NC(C)CCc2ccccc2)cc1[N+](=O)[O-] (stereo not drawn) | 3.55 µM [rising, partial curve, poor fit] | – |
| COC(=O)CSc1nnc(COc2ccc3ccccc3c2)o1 | 15.8 µM [falling, single point] | – |
| CC(=O)Nc1ccc(C(=O)N(C)C(C(=O)Nc2ccccc2)c2ccccn2)cc1 (stereo not drawn) | 18.4 µM [rising, single point] | – |

Some of the entries so far, comma-delimited:
Structure (SMILES),AC50 [1],AC50 [2]
COC(=O)Cn1cnc2c(nnn2-c2ccc(C)cc2)c1=O,"4.11 µM [falling, single point]",–
CC(C)[C@@H](C(=O)NC1CCN(Cc2ccccc2)CC1)N1C(=O)N2CCc3c([nH]c4ccccc34)[C@@]2(C)C1=O,"14.1 µM [falling, partial curve, poor fit]","14.1 µM [rising, partial curve, poor fit]"

Continued:

| Structure (SMILES) | AC50 [1] | AC50 [2] |
| --- | --- | --- |
| COc1cccc(C(=O)Nc2nc3ccccc3s2)c1 | 3.98 µM [falling, full curve] | – |
| CCOc1ccc(C(=O)O/N=C(\N)c2ccccn2)cc1OCC | 6.31 µM [falling, partial curve] | – |
| Cc1ccc(C(=O)c2oc3ccccc3c2NC(=O)c2cc(-c3cc(C)ccc3O)n[nH]2)cc1 | 3.16 µM [rising, single point] | – |
| Cn1cc(CNC(=O)C2c3ccccc3Oc3ccccc32)cn1 | 6.31 µM [falling, single point] | – |
| Cc1oc(/C=N/NC(=O)CN(c2ccccc2Br)S(C)(=O)=O)cc1Br | 1.26 µM [falling, full curve, poor fit] | – |
| C/C(=N\Nc1ncc(Cl)cc1Cl)c1cccs1 | 14.1 µM [falling, partial curve] | 25.1 µM [falling, single point] |
| CCOC(=O)/C=c1\s/c(=C(\C#N)C(=O)NC)n(-c2ccccc2)c1=O | 6.31 µM [falling, single point] | – |
| COC(=O)Cc1csc(Nc2ccc(F)c(Cl)c2)n1 | 0.891 µM [rising, partial curve, poor fit] | – |
| COc1cc2c(cc1OC)[C@@H](NC(=O)Cc1ccc(F)cc1)[C@H](OCc1ccccc1)C2 | 2.91 µM [rising, partial curve, poor fit] | – |
| C=CCn1c(SCc2cc(C(=O)OC)c(C)o2)nnc1-c1ccncc1 | 35.5 µM [falling, partial curve, poor fit] | – |
| Cc1nc(C(=O)NC(C)C)nn1-c1cc(Cl)cc(Cl)c1 | 2.51 µM [rising, partial curve, poor fit] | – |
| COc1ccc(NC2=C(Cl)C(=O)N(c3ccccc3)C2=O)c(OC)c1 | 10 µM [falling, partial curve] | – |
| C=CCN1C=C2C(=O)C(C)(OC(=O)CCc3ccccc3)C(=O)C=C2C=C1c1ccc(C#N)cc1 (stereo not drawn) | 8.91 µM [rising, partial curve] | – |
| Clc1ccc(-n2ncc3c(N4CCCC4)ncnc32)cc1 | 0.731 µM [rising, full curve] | – |
| Cc1cc(O)c(C(C)C)cc1NC(=O)c1ccccc1Cl | 20.6 µM [rising, partial curve, poor fit] | – |
